# Source: the supplement of paper PMC10689618
# Where a name gives a salt, the structure may show the parent alone. This is one part of the list. Single values are uncertain, as repeats are few or missing.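 Primary human fetal astrocytes engulfed labelled rat cortical synaptosomes, measured as a red/green ratio corrected for calcein live-cell signal and scaled to the plate median. Toxicity meant calcein falling over 30%; decreased phagocytosis meant below 70% of median above 5 µM.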
# What was measured:
# Human fetal astrocytes [1] = assay: loss of total cells relative to no-compound high-control median (toxicity); higher = more toxic (fewer cells); conditions: 24 h
# Human fetal astrocytes [2] = assay: synaptosome phagocytosis (pHrodo/calcein intensity ratio) relative to plate median of data wells; higher = more phagocytosis; conditions: 24 h
Compound,loss of total cells (Human fetal astrocytes [1]; 1.39 µM),loss of total cells (Human fetal astrocytes [1]; 2.78 µM),loss of total cells (Human fetal astrocytes [1]; 5.56 µM),loss of total cells (Human fetal astrocytes [1]; 11.11 µM),loss of total cells (Human fetal astrocytes [1]; 22.22 µM),synaptosome phagocytosis (Human fetal astrocytes [2]; 1.39 µM),synaptosome phagocytosis (Human fetal astrocytes [2]; 2.78 µM),synaptosome phagocytosis (Human fetal astrocytes [2]; 5.56 µM),synaptosome phagocytosis (Human fetal astrocytes [2]; 11.11 µM),synaptosome phagocytosis (Human fetal astrocytes [2]; 22.22 µM)
Fc1ccc(C(OCCN2CCN(CCCc3ccccc3)CC2)c2ccc(F)cc2)cc1,9.6%,0%,16.5%,10.3%,36.8%,95.1%,77.9%,92.5%,95.5%,67.2%
CCN1C[C@]2(C)CC[C@H](O)[C@]34C1[C@@H](C[C@H]23)[C@@]1(O)C[C@H](OC)[C@H]2C[C@@H]4[C@@H]1[C@H]2O [Karakoline],-6.2%,3.2%,4.2%,-6.7%,-3.7%,86.7%,98.2%,121%,101%,95.4%
S=C=Nc1cccc(C2(N3CCCCC3)CCCCC2)c1 [Metaphit methanesulfonate],-10.9%,0.5%,6.1%,9.5%,33.6%,81.1%,125%,110%,124%,78.2%
CN1[C@@H]2CC[C@H]1C[C@@H](OC(=O)C(CO)c1ccccc1)C2 (stereo not given in full) [Atropine sulfate],2.6%,-4.5%,-15.2%,-15.7%,18.4%,137%,98.5%,103%,123%,119%
O=C(O)CCCc1ccc(N(CCCl)CCCl)cc1 [Chlorambucil],-14.7%,-16.5%,-19.8%,-0.4%,-13.9%,98.1%,99%,86.2%,139%,93.6%
CCCCc1ccc(C(=O)O)nc1 [Fusaric acid],-2.1%,-6.8%,2.5%,-7.6%,12.8%,106%,105%,136%,94.8%,128%
"Clc1ccc(N2CCN(Cc3c[nH]c4ncccc34)CC2)cc1 [L-745,870 hydrochloride]",-1.4%,21.3%,-6.1%,9.5%,21.5%,94.2%,114%,110%,52.7%,56.2%
CCCN(CCC)C1CCc2ccc(O)cc2C1 (stereo not drawn) [R-(+)-7-Hydroxy-DPAT hydrobromide],-18%,-32.5%,-2.5%,-20.2%,-4%,94.2%,74.8%,103%,93.7%,97.3%
CC(C)C1CNC(C(=O)O)C1CC(=O)O (stereo not given) [Dihydrokainic acid],5.4%,-17.9%,-4.9%,-4.9%,-0.8%,102%,98.4%,131%,120%,90.2%
NC(=O)CI [Iodoacetamide],-8.8%,-1.7%,-20.6%,-18.4%,1.6%,110%,97.6%,98.8%,79.3%,101%
"COc1ccc2c3c1O[C@H]1C(=O)CC[C@@]4(O)C(C2)N(CC2CC2)CCC314 (single isomer, unassigned; (-)) [(-)-3-Methoxynaltrexone hydrochloride]",-12.8%,5%,5.2%,32.4%,20.6%,117%,99.7%,98%,110%,92.9%
"C=CCN1CCC2(C)c3cc(O)ccc3CC1[C@@H]2C (single isomer, unassigned; (+)) [(+)-N-Allylnormetazocine hydrochloride]",-11.7%,-10.5%,-18.9%,-13.9%,-1.9%,80%,96.1%,90.4%,89.6%,86.3%
O=C1CC[C@@]2(O)[C@H]3Cc4ccc(O)c5c4[C@@]2(CCN3CC2CC2)[C@H]1O5 [Naltrexone hydrochloride],-19.4%,14%,20.2%,7.6%,9.3%,100%,113%,86.4%,132%,107%
C=CCN1CC[C@]23CCCC[C@H]2[C@H]1Cc1ccc(O)cc13 [Levallorphan tartrate],-10.9%,5.9%,9.9%,-4.8%,11.2%,97.2%,80.9%,116%,86.6%,95%
N[C@@H](Cc1ccc(N(CCCl)CCCl)cc1)C(=O)O [Melphalan],-16.6%,-14%,8%,2.9%,29%,84.5%,97%,98.8%,84.3%,79.2%
C[C@]12CC[C@H](OS(=O)(=O)O)CC1=CC[C@@H]1[C@@H]2CC[C@]2(C)C(=O)CC[C@@H]12 [Dehydroisoandrosterone 3-sulfate sodium],6.3%,-12%,-3.3%,5.8%,-11.2%,119%,105%,115%,131%,103%
N#CCCN [3-Aminopropionitrile fumarate],1.5%,-12%,-6.9%,-4.9%,4.9%,93.9%,133%,92.9%,117%,98.3%
C[C@]12CC[C@H](O)CC1=CC[C@@H]1[C@@H]2CC[C@]2(C)C(=O)CC[C@@H]12 [trans-Dehydroandrosterone],-8.8%,-20.5%,-9.9%,-3.1%,-4%,121%,113%,104%,98.6%,72.2%
"C[C@@H](N)Cc1cnc[nH]1 [Histamine, R(-)-alpha-methyl-, dihydrochloride]",-5.4%,-20.5%,4.1%,-8.5%,0%,80.7%,110%,117%,108%,95.8%

Compound,loss of total cells (Human fetal astrocytes [1]; 1.39 µM),loss of total cells (Human fetal astrocytes [1]; 2.78 µM),loss of total cells (Human fetal astrocytes [1]; 5.56 µM),loss of total cells (Human fetal astrocytes [1]; 11.11 µM),loss of total cells (Human fetal astrocytes [1]; 22.22 µM),synaptosome phagocytosis (Human fetal astrocytes [2]; 1.39 µM),synaptosome phagocytosis (Human fetal astrocytes [2]; 2.78 µM),synaptosome phagocytosis (Human fetal astrocytes [2]; 5.56 µM),synaptosome phagocytosis (Human fetal astrocytes [2]; 11.11 µM),synaptosome phagocytosis (Human fetal astrocytes [2]; 22.22 µM)
CCCN1CCC[C@@H]2Cc3n[nH]cc3C[C@H]21 (racemic) [(±)-Quinpirole dihydrochloride],-15.2%,-30.8%,-10.7%,-21.8%,-20.6%,83.3%,87.8%,71.1%,103%,138%
CCCn1c(C)c(C(=O)c2cccc3ccccc23)c2ccccc21,-20.4%,12.2%,6.1%,-2.9%,-4.7%,94.3%,121%,95.1%,58.2%,85.2%
C[N+]1(C)[C@@H]2CC[C@H]1C[C@@H](OC(=O)C(CO)c1ccccc1)C2 (stereo not given in full) [Atropine methyl nitrate],-5.5%,-5.1%,-2.3%,4.9%,1.1%,104%,112%,100%,95.2%,127%
NCc1cc(O)no1 [Muscimol hydrobromide],-0.4%,-18.8%,4.1%,-7.6%,8%,120%,103%,105%,115%,108%
Clc1cccc(N2CCNCC2)c1 [1-(3-Chlorophenyl)piperazine dihydrochloride],-26.1%,-10.8%,-5.1%,2.2%,-1.9%,92.1%,109%,119%,136%,102%
"CC12CCC3C(CCC4=C(O)C(=O)CCC43C)C1CCC2=O (stereo not given) [4-Androsten-4-ol-3,17-dione]",-30.5%,-16.5%,-12.4%,-6.7%,-0.4%,93.4%,97.7%,99.2%,76.5%,82.1%
N[C@]1(C(=O)O)CC[C@H](C(=O)O)C1 (racemic) [trans-(±)-ACPD],-26.1%,-8.4%,-10.6%,6.7%,-1.9%,92.4%,115%,93.7%,108%,111%
"NC(Cn1oc(=O)[nH]c1=O)C(=O)O (single isomer, unassigned; (+)) [(+)-Quisqualic acid]",-15.2%,-17.7%,-18.5%,-23.4%,-36.2%,84%,75.5%,74.4%,100%,137%
NC(=O)c1cc(N2CC2)c([N+](=O)[O-])cc1[N+](=O)[O-],-15.4%,-2.7%,-8.8%,-8.5%,13.2%,75.9%,102%,95.2%,97.2%,94.7%
"CCc1c(C(=O)OC)ncc2[nH]c3cc(OC)c(OC)cc3c12 [Methyl 6,7-dimethoxy-4-ethyl-beta-carboline-3-carboxylate]",-8.8%,-23.1%,0%,-13.9%,3.2%,90.5%,100%,120%,94.5%,92.6%
C=CCN1CC[C@]23c4c5ccc(O)c4O[C@H]2/C(=N/NC(=O)c2ccccc2)CC[C@@]3(O)[C@H]1C5 [Naloxone benzoylhydrazone],-20.4%,-4.1%,-22.1%,0%,-5.6%,97.3%,115%,114%,111%,113%
Cc1sc2ccccc2c1CC1=NCCN1 [Benazoline oxalate],-4%,-10.8%,-13.4%,-11.2%,4.1%,169%,125%,107%,81.3%,133%
CN1[C@@H]2CC[C@H]1C[C@@H](OC(c1ccccc1)c1ccccc1N)C2 (stereo not given in full) [Aminobenztropine],-17.2%,-17.1%,0.5%,-11.2%,-6.4%,85.3%,86.4%,56.6%,73.2%,73%
NCC#Cc1ccccc1 [3-Phenylpropargylamine hydrochloride],-10.2%,-31.4%,-0.6%,9.6%,4.9%,107%,126%,132%,96%,33.3%
CC(C)NC(C)Cc1ccc(I)cc1 (stereo not given) [Iofetamine hydrochloride],8.1%,3.2%,15.5%,8.6%,12.1%,92.8%,104%,93.4%,100%,120%
CCS(=O)(=O)Nc1cccc(C(=C2CCCCC2)c2cnc[nH]2)c1,-20.6%,-10.2%,3.2%,4.9%,14.7%,83.9%,104%,111%,81.2%,95.5%
"C[C@]12CCC(=O)C=C1CC[C@@H]1[C@@H]2CC[C@]2(C)C(=O)CC[C@@H]12 [4-Androstene-3,17-dione]",-3.3%,-2.7%,-21.7%,-6.7%,14.7%,105%,138%,129%,87.7%,106%
N.N.[Cl][Pt][Cl] [Cisplatin],-17.5%,-1.4%,2.3%,9.5%,22.4%,103%,117%,106%,79.7%,123%
CC(C)[C@@]1(NC(=O)[C@@H]2C=C3c4cccc5[nH]cc(c45)C[C@H]3N(C)C2)O[C@@]2(O)[C@@H]3CCCN3C(=O)[C@H](Cc3ccccc3)N2C1=O [Ergocristine],-7.1%,-10.3%,-25.5%,-13%,5.6%,122%,119%,122%,128%,124%

# A stretch of the results above, for reference:
Compound,loss of total cells (Human fetal astrocytes [1]; 1.39 µM),loss of total cells (Human fetal astrocytes [1]; 2.78 µM),loss of total cells (Human fetal astrocytes [1]; 5.56 µM),loss of total cells (Human fetal astrocytes [1]; 11.11 µM),loss of total cells (Human fetal astrocytes [1]; 22.22 µM),synaptosome phagocytosis (Human fetal astrocytes [2]; 1.39 µM),synaptosome phagocytosis (Human fetal astrocytes [2]; 2.78 µM),synaptosome phagocytosis (Human fetal astrocytes [2]; 5.56 µM),synaptosome phagocytosis (Human fetal astrocytes [2]; 11.11 µM),synaptosome phagocytosis (Human fetal astrocytes [2]; 22.22 µM)
C[C@]12CC[C@H](O)CC1=CC[C@@H]1[C@@H]2CC[C@]2(C)C(=O)CC[C@@H]12 [trans-Dehydroandrosterone],-8.8%,-20.5%,-9.9%,-3.1%,-4%,121%,113%,104%,98.6%,72.2%
"C[C@@H](N)Cc1cnc[nH]1 [Histamine, R(-)-alpha-methyl-, dihydrochloride]",-5.4%,-20.5%,4.1%,-8.5%,0%,80.7%,110%,117%,108%,95.8%
